Laboratory results: PubChem BioAssay AID445 (National Center for Advancing Translational Sciences (NCATS), 2006)
Some of the results follow. Shown are side measurements of this screen, not its main read-out; they come without a call. Compounds called inactive in the main read-out are mostly missing here. Potencies come from curve fits of mixed quality, noted in brackets.

Assay: IkB Signaling
Conditions: ABC-DLBCL IkBa-CBG/CBR dual luciferase ratio (green luciferase fused to IkBa over red control in OCI-Ly3 lymphoma cells), 4 h; measured here: control luc red channel unless noted
Procedure, shortened: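 Curves were fitted separately to fusion (green), unfused (red) and ratio luminescence, then classed by r2, magnitude and activity. Cells: OCI-Ly3, 4 h compound plus doxycycline at 37C; 10 uM MG-132 defined full response.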

Row | SMILES | AC50
1 | CCN(CC)S(=O)(=O)c1ccc2nnn(OCC(=O)Nc3cccc(C#N)c3)c2c1 | 12.6 µM [falling, partial curve]
2 | Cc1ccc(-n2ccnc(NCc3cccs3)c2=O)cc1C | 1.58 µM [rising, partial curve]
3 | Cc1cc(C)c2oc(C(=O)Nc3nc4ccc(Cl)cc4s3)cc(=O)c2c1 | 1.26 µM [rising, full curve]
4 | CC1CN(C(=O)Nc2ccc3snnc3c2)c2ccccc21 (stereo not drawn) | 20 µM [falling, single point]
5 | COc1ccccc1C(=O)NCCc1csc(-c2ccc(C(F)(F)F)cc2)n1 | 31.6 µM [falling, single point]
6 | COc1cc(NC(=O)Cn2c(=O)n(CC3CCCO3)c(=O)c3cc(OC)c(OC)cc32)cc(OC)c1 (stereo not drawn) | 39.8 µM [falling, single point]
7 | CCc1ccc(C2CC(=O)N(c3cccc(C(F)(F)F)c3)C3=C2C(=O)OC3)cc1 (stereo not drawn) | 25.1 µM [falling, partial curve]
8 | Cc1ccc(C)c(NC2=C(c3ccc(C(F)(F)F)cc3)C(=O)c3ccccc32)c1 | 15.8 µM [falling, partial curve]
9 | CCCN1CCCc2cc(CN(CCCN3CCOCC3)C(=O)Nc3ccc(OCC)cc3)ccc21 | 3.16 µM [falling, single point]
10 | COc1ccc2c(CNC3CCC(C)CC3)c(C(=O)O)n(Cc3ccccc3)c2c1 (stereo not drawn) | 15.8 µM [falling, single point]
11 | COc1ccccc1NC(=O)C1=C(C)Nc2nc(SCc3ccccc3Cl)nn2C1c1cccnc1 (stereo not drawn) | 3.98 µM [falling, partial curve]
12 | N#Cc1cnc2sc3ccccc3n2c1=N | 10 µM [falling, partial curve]
13 | Cc1ccc(NC(=O)CN2CCN(C3CCCCC3)C(=O)C2=O)cc1C | 7.94 µM [falling, partial curve, poor fit]
14 | CCCN1C(C(=O)c2ccccc2)=C(OC(=O)C(C)(C)C)c2ccccc2S1(=O)=O | 10 µM [falling, partial curve]
15 | Cc1ccc2c(c1)sc1nc(=O)n(-c3cccc(Cl)c3)c(=O)n12 | 0.0251 µM [falling, full curve, poor fit]
16 | O=C(Cn1ncc2c3ccccc3n(Cc3cccc(Cl)c3)c2c1=O)N1CCCCC1 | 12.6 µM [falling, partial curve]
17 | COc1ccc(CN2C(=O)c3ccccc3C2C(=O)NC2CCCCCC2)c(OC)c1 (stereo not drawn) | 25.1 µM [falling, single point]
18 | COc1ccc2oc(=O)c(-c3nc4ccc(C)cc4[nH]3)cc2c1 | 0.316 µM [falling, full curve]
19 | COc1ccc(Br)cc1CC1C(=O)Nc2ccccc21 (stereo not drawn) | 25.1 µM [falling, partial curve]
20 | CCC1Oc2ccc(C)cc2N(CC(=O)N(Cc2cccnc2)Cc2ccc(C)o2)C1=O (stereo not drawn) | 31.6 µM [falling, partial curve]
21 | COc1ccccc1OCC(=O)Sc1ccc(C)cc1 | 39.8 µM [rising, single point] [measured here: IkB-luc green channel]

Row | SMILES | AC50
22 | CCN(CCCNC(=O)CCCN1C(=O)COc2ccc(C)cc21)c1cccc(C)c1 | 12.6 µM [falling, partial curve]
23 | Cn1c(=O)cc(OCC(=O)N2CCN(c3ccccc3F)CC2)c2ccccc21 | 20 µM [falling, single point]
24 | Cc1cc2oc(C(=O)N(Cc3ccc(N(C)C)cc3)CC3CCCO3)c(C)c2cc1C (stereo not drawn) | 12.6 µM [falling, partial curve]
25 | O=c1cc[nH]c2cccc(Cc3ccccc3)c12 | 12.6 µM [falling, partial curve]
26 | CCN1CCc2c(sc(NC(=O)CSc3ccccc3)c2-c2nc3ccccc3s2)C1 | 39.8 µM [falling, single point]
27 | COc1ccc(-c2noc(-c3cc(C(C)C)[nH]n3)n2)cc1 | 1 µM [rising, partial curve]
28 | Cc1ccc(OCCSc2nc3ccccc3n2CC(=O)N2CCCCC2)cc1C | 20 µM [falling, partial curve]
29 | COC(=O)c1ccccc1NC(=O)CCn1nc(C)c2c(C)n(-c3ccccc3)nc2c1=O | 2 µM [falling, full curve]
30 | CCOc1cccc2sc(NC(=O)c3ccc(S(=O)(=O)N4CCc5ccccc54)cc3)nc12 | 0.398 µM [falling, full curve]
31 | Cc1csc(NC(=O)C(NS(=O)(=O)c2ccc(Br)s2)c2ccccc2)n1 (stereo not drawn) | 15.8 µM [falling, partial curve]
32 | COc1ccc(CN2CCN(c3ncnc4sc5c(c34)CCCC5)CC2)cc1F | 10 µM [falling, partial curve]
33 | CCCCN(C)C(=O)c1ccc2c(c1)N(Cc1cccc(Cl)c1)C(=O)c1ccccc1S2=O (stereo not drawn) | 39.8 µM [falling, single point]
34 | CCOC(=O)CSc1nc2cc3c(cc2c(=O)n1CCCCCC(=O)NCc1ccc2c(c1)OCO2)OCO3 | 6.31 µM [rising, single point]
35 | COc1cc(C2Nc3ccccc3-c3nnc(SCc4ccc(Cl)cc4)nc3O2)ccc1OCC(=O)O (stereo not drawn) | 31.6 µM [falling, single point]
36 | Cc1ccc2c(CC(=O)Nc3ccc(S(=O)(=O)Nc4nc(C)cc(C)n4)cc3)coc2c1 | 5.01 µM [falling, partial curve]
37 | COC(=O)c1ccc(NC(=O)c2nn(C)c3c2COc2ccccc2-3)cc1 | 7.94 µM [falling, partial curve]
38 | Cc1nn(CCCC(=O)NCCc2ccc(Cl)cc2)c(=O)c2nn(-c3ccccc3)c(C)c12 | 12.6 µM [falling, partial curve, poor fit]
39 | COc1ccc(C2CC(=O)c3cc(-c4nc(-c5cccc([N+](=O)[O-])c5)cs4)c(=O)n(-c4ccccc4C)c3C2)cc1 (stereo not drawn) | 15.8 µM [falling, single point]
40 | Cc1ccc(-c2cc(NC(=O)COc3c(C)cc(C)cc3C)on2)cc1 | 2 µM [falling, partial curve]
41 | O=C(NCc1ccccc1F)c1cccc(NC(=O)N2CCSc3ncccc32)c1 | 25.1 µM [falling, single point]
42 | COc1ccc(C)cc1NC(=O)C1CCN(S(=O)(=O)c2cccc3cccnc23)CC1 | 12.6 µM [falling, partial curve]

Quoted at random: three records from the list, in no set order.
Row | SMILES | AC50
33 | CCCCN(C)C(=O)c1ccc2c(c1)N(Cc1cccc(Cl)c1)C(=O)c1ccccc1S2=O (stereo not drawn) | 39.8 µM [falling, single point]
41 | O=C(NCc1ccccc1F)c1cccc(NC(=O)N2CCSc3ncccc32)c1 | 25.1 µM [falling, single point]
13 | Cc1ccc(NC(=O)CN2CCN(C3CCCCC3)C(=O)C2=O)cc1C | 7.94 µM [falling, partial curve, poor fit]

Carrying on.

Row | SMILES | AC50
43 | CNc1nc2c(c(=O)[nH]c(=O)n2C)n1CCOC | 20 µM [falling, partial curve]
44 | Cc1ccc(NC(=O)Cc2nc(CSc3nnc(-c4ccc5c(c4)OCO5)o3)cs2)cc1 | 6.31 µM [falling, partial curve]
45 | COc1ccc(-n2c(O)c(C=NC3CC3)c(=O)[nH]c2=O)cc1 | 10 µM [falling, partial curve]
46 | CCCCNC(=O)CCc1c(C)nc2c(c(C)nn2-c2ccccc2)c1C | 20 µM [falling, single point]
47 | Cc1cc(C(=O)CSc2nnc(Cc3ccccc3)o2)c(C)n1Cc1ccc2c(c1)OCO2 | 12.6 µM [falling, partial curve]
48 | O=C(Nc1ccccc1)C1=C(N2CCOCC2)/C(=C/c2cccnc2)CC1 | 39.8 µM [falling, single point]
49 | COc1cccc(OCc2nc3ccccc3n2CCOc2cccc(C)c2)c1 | 20 µM [falling, partial curve]
50 | Cc1cccc(CS(=O)(=O)c2ncc(Cl)c(C(=O)NCc3ccccc3)n2)c1 | 3.16 µM [falling, full curve]
51 | Cn1c(=O)c2c(nc(SCC(=O)Nc3ccc(F)cc3)n2Cc2ccccc2)n(C)c1=O | 15.8 µM [falling, partial curve]
52 | COc1ccc(NS(=O)(=O)c2ccc3[nH]c4c(c3c2)CCCCCC4)cc1 | 20 µM [falling, partial curve]
53 | Cc1ccccc1CS(=O)(=O)Cc1ccc(C(=O)NCc2ccc(F)cc2)o1 | 3.16 µM [rising, single point]
54 | CCCCn1c(CN(C)Cc2ccccc2)nc2c1c(=O)n(C)c(=O)n2C | 12.6 µM [falling, partial curve]
55 | Cc1ccc(-c2csc(N(CC3CCCO3)C(=O)c3ccco3)n2)cc1 (stereo not drawn) | 31.6 µM [falling, partial curve]
56 | CC(C)C(=O)OCc1cc(=O)n2nc(C3CCCCC3)sc2n1 | 12.6 µM [falling, partial curve]
57 | COCCNc1ncnc2c1c(-c1ccccc1)cn2-c1cccc(Cl)c1 | 39.8 µM [falling, single point]
58 | Cc1cnc(C)c(N2CCC(C(=O)NCc3ccco3)CC2)n1 | 2.51 µM [rising, partial curve] [measured here: IkB-luc green channel]
59 | Cn1c(CCNC(=O)c2ccco2)nc2cc(NC(=O)COc3ccc(Cl)cc3)ccc21 | 0.316 µM [falling, full curve, poor fit]
60 | Cc1ccc(C(=O)COC(=O)CCC(=O)Nc2ccc(Oc3ccccc3)cc2)cc1C | 0.0631 µM [rising, full curve]
61 | O=C(Cn1nc(C(F)(F)F)c2c1CCCC2)NC1CCCC1 | 39.8 µM [falling, single point]
62 | COc1cc(NC(=O)Cn2cc(S(=O)(=O)c3ccccc3)c(=O)c3ccccc32)cc(OC)c1 | 25.1 µM [falling, single point]
63 | COc1cccc(-c2ccc3c(N)c(C(=O)Nc4ccc(C)c(F)c4)sc3n2)c1 | 15.8 µM [falling, partial curve]
